According to PMC7817177 (eLife, 2021):
These are yes or no findings as the source states them, for the method shown. Some binding calls cover weakened binding; strength is not graded here.

Protein sequences, listed by entry. Tags and fused reporters are not part of them.
UniProt P36405: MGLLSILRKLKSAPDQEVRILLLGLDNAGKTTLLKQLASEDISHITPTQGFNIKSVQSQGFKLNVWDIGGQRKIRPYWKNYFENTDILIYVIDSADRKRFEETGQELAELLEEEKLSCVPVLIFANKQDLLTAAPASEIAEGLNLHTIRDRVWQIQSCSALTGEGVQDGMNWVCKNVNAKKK

Target: ADP-ribosylation factor-like 3 (ARL3), full length (human) (UniProt P36405)
Test: SPR; Biacore 8K, CM5 chip with GST capture kit; GST-BART immobilised (about 100 units); 640 nM ARL3GppNHp injected for 120 s, then nine injections of buffer or 2 µM PDEδ; 25°C, 30 µL/min; 20 mM Tris pH 7.5, 150 mM NaCl, 5 mM MgCl2, 0.02% triton X-100, 2 mM DTT; both purified

phosphodiesterase six subunit δ (PDEδ), full length (from UniProt O43924 1-150)
binding: binds
